*: point of attachment. Cbz = O=C(OCc1ccccc1)*; OBn = c1ccc(CO*)cc1
Experiment: general procedure: solution-phase peptide synthesis; N,N'-dicyclohexylcarbodiimide / N-oxybenzotriazol

| Substance | step yield (coupling step) | step yield (late stage modification step) | final HPLC purity (purification step, 220 nm) |
| --- | --- | --- | --- |
| Cbz-K(Cbz)E(OBn)D(OBn)P-OBn | 95% | – | – |
| H-Lys-Glu-Asp-Trp-NH2 | – | 90% | 97.48% |
